# Some of the results follow.
# B1: LlpA (Arthrobacter sp) (protein)
# chain: MGSSHHHHHHSSGLVPRGSHMTLHPETALRPGAAATSPNSRYRLLYQTDGNLVLYGPDGPLWDSGTNGHGAGACIMQADGNLVLYGPNDEYVWDTETDNNPGSRLVIQDDGNAVIYRPDGSPLWATETCQPPGSADSHVLQSGSTLTPTHGIRSANGLYGLLYQTDGNLVFYGPDGPLWDSGTNGRGAGACIMQPDGNLVLYGPHDEYVWDTETDNNPGSRLVIQDDGNAVIYRPDGNPTWVTGTH
# Assays:
# Assay in all cases: glycan array binding signal (z-score within array); higher = stronger binding
# Conditions in all cases: glycan notation: IUPAC condensed, linker removed
# [1] = target: GlcNAc(b1-4)GlcNAc(b1-4)GlcNAc(b1-4)GlcNAc(b1-4)GlcNAc
# Summary of the method: (§1)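 The binding signal is a Z-score computed within each array and averaged over linkers. Arrays of the same protein sequence at different concentrations or buffers were also averaged together. Data originate from 3228 arrays in the Consortium for Functional Glycomics database, kept only where the protein sequence was available.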
# [2] = target: GlcNAc(b1-4)GlcNAc(b1-4)GlcNAc(b1-4)GlcNAc(b1-4)GlcNAc(b1-4)GlcNAc
# Summary of the method: as §1
# [3] = target: GlcNAc(b1-4)[GlcNAc(b1-6)]GalNAc
# Summary of the method: as §1
# [4] = target: GlcNAc(b1-6)Gal(b1-4)GlcNAc
# Summary of the method: as §1
# [5] = target: GlcNAc(b1-6)GalNAc
# Summary of the method: as §1
# [6] = target: GlcNAc6S(b1-3)Gal(b1-4)GlcNAc
# Summary of the method: as §1
# [7] = target: Kdn(a2-3)Gal(b1-3)GalNAc
# Summary of the method: as §1
# [8] = target: Kdn(a2-3)Gal(b1-3)GlcNAc
# Summary of the method: as §1
# [9] = target: Kdn(a2-3)Gal(b1-4)Glc
# Summary of the method: as §1
# [10] = target: Kdn(a2-3)Gal(b1-4)GlcNAc
# Summary of the method: as §1
# [11] = target: Kdn(a2-3)Gal(b1-4)[Fuc(a1-3)]GlcNAc
# Summary of the method: as §1
# [12] = target: Kdn(a2-6)Gal(b1-4)GlcNAc
# Summary of the method: as §1
# [13] = target: Man(a1-2)Man(a1-2)Man(a1-3)Man
# Summary of the method: as §1
# [14] = target: Man(a1-2)Man(a1-2)Man(a1-6)[Man(a1-3)]Man
# Summary of the method: as §1
# [15] = target: Man(a1-2)Man(a1-3)Man
# Summary of the method: as §1
# [16] = target: Man(a1-2)Man(a1-3)[Man(a1-2)Man(a1-6)]Man
# Summary of the method: as §1
# [17] = target: Man(a1-2)Man(a1-3)[Man(a1-2)Man(a1-6)]Man(a1-6)[Man(a1-2)Man(a1-2)Man(a1-3)]Man
# Summary of the method: as §1
# [18] = target: Man(a1-2)Man(a1-3)[Man(a1-2)Man(a1-6)]Man(a1-6)[Man(a1-2)Man(a1-2)Man(a1-3)]Man(b1-4)GlcNAc(b1-4)GlcNAc
# Summary of the method: as §1
# [19] = target: Man(a1-2)Man(a1-3)[Man(a1-6)]Man(a1-6)[Man(a1-2)Man(a1-3)]Man(b1-4)GlcNAc(b1-4)GlcNAc
# Summary of the method: as §1
# [20] = target: Man(a1-2)Man(a1-6)[Man(a1-3)]Man(a1-6)[Man(a1-2)Man(a1-2)Man(a1-3)]Man
# Summary of the method: as §1
# [21] = target: Man(a1-2)Man(a1-6)[Man(a1-3)]Man(a1-6)[Man(a1-2)Man(a1-2)Man(a1-3)]Man(b1-4)GlcNAc(b1-4)GlcNAc
# Summary of the method: as §1
# [22] = target: Man(a1-3)[Man(a1-6)]Man
# Summary of the method: as §1
# [23] = target: Man(a1-3)[Man(a1-6)]Man(a1-6)[Man(a1-2)Man(a1-3)]Man(b1-4)GlcNAc(b1-4)GlcNAc
# Summary of the method: as §1
# [24] = target: Man(a1-3)[Man(a1-6)]Man(a1-6)[Man(a1-3)]Man
# Summary of the method: as §1
# [25] = target: Man(a1-3)[Man(a1-6)]Man(a1-6)[Man(a1-3)]Man(b1-4)GlcNAc(b1-4)GlcNAc
# Summary of the method: as §1
# [26] = target: Man(a1-3)[Man(a1-6)]Man(b1-4)GlcNAc(b1-4)GlcNAc
# Summary of the method: as §1
# [27] = target: Man(a1-3)[Man(a1-6)]Man(b1-4)GlcNAc(b1-4)[Fuc(a1-6)]GlcNAc
# Summary of the method: as §1
# [28] = target: Man(a1-6)Man
# Summary of the method: as §1
# [29] = target: Man(b1-4)GlcNAc
# Summary of the method: as §1
# [30] = target: MurNAc(b1-4)GlcNAc
# Summary of the method: as §1
# [31] = target: Neu5Ac(a2-3)Gal
# Summary of the method: as §1
# [32] = target: Neu5Ac(a2-3)Gal(b1-3)GalNAc
# Summary of the method: as §1
# [33] = target: Neu5Ac(a2-3)Gal(b1-3)GalNAc(b1-3)Gal(a1-4)Gal(b1-4)Glc
# Summary of the method: as §1
# [34] = target: Neu5Ac(a2-3)Gal(b1-3)GalNAc(b1-4)Gal(b1-4)Glc
# Summary of the method: as §1
# [35] = target: Neu5Ac(a2-3)Gal(b1-3)GalNAc(b1-4)[Neu5Ac(a2-3)]Gal(b1-4)Glc
# Summary of the method: as §1
# [36] = target: Neu5Ac(a2-3)Gal(b1-3)GalNAc(b1-4)[Neu5Ac(a2-8)Neu5Ac(a2-3)]Gal(b1-4)Glc
# Summary of the method: as §1
# [37] = target: Neu5Ac(a2-3)Gal(b1-3)GalNAc6S
# Summary of the method: as §1
binder,measurement,setting,value
B1,glycan array binding signal (z-score),[1],0.068
same,glycan array binding signal (z-score),[2],-0.221
same,glycan array binding signal (z-score),[3],-0.713
same,glycan array binding signal (z-score),[4],1.33
same,glycan array binding signal (z-score),[5],0.293
same,glycan array binding signal (z-score),[6],1.25
same,glycan array binding signal (z-score),[7],0.507
same,glycan array binding signal (z-score),[8],0.196
same,glycan array binding signal (z-score),[9],-0.782
same,glycan array binding signal (z-score),[10],-0.236
same,glycan array binding signal (z-score),[11],-1.12
same,glycan array binding signal (z-score),[12],0.328
same,glycan array binding signal (z-score),[13],-0.521
same,glycan array binding signal (z-score),[14],-0.486
same,glycan array binding signal (z-score),[15],-1.26
same,glycan array binding signal (z-score),[16],-1.05
same,glycan array binding signal (z-score),[17],-0.119
same,glycan array binding signal (z-score),[18],-0.452
same,glycan array binding signal (z-score),[19],-0.796
same,glycan array binding signal (z-score),[20],-0.328
same,glycan array binding signal (z-score),[21],0.31
same,glycan array binding signal (z-score),[22],0.327
same,glycan array binding signal (z-score),[23],0.429
same,glycan array binding signal (z-score),[24],0.524
same,glycan array binding signal (z-score),[25],0.091
same,glycan array binding signal (z-score),[26],-0.149
same,glycan array binding signal (z-score),[27],0.031
same,glycan array binding signal (z-score),[28],-0.068
same,glycan array binding signal (z-score),[29],-0.389
same,glycan array binding signal (z-score),[30],-0.798
same,glycan array binding signal (z-score),[31],-0.845
same,glycan array binding signal (z-score),[32],-0.725
same,glycan array binding signal (z-score),[33],-0.657
same,glycan array binding signal (z-score),[34],-1.33
same,glycan array binding signal (z-score),[35],-0.467
same,glycan array binding signal (z-score),[36],-0.752
same,glycan array binding signal (z-score),[37],-0.443

# 2 entries from above in a different format:
binder	measurement	setting	value
B1	glycan array binding signal (z-score)	[4]	1.33
same	glycan array binding signal (z-score)	[8]	0.196
